23 sequences from PMC7819943, “Rice protein-binding microarrays: a tool to detect cis-acting elements near promoter regions in rice” can be followed below.

The other results are listed elsewhere or left out.

The target in the assay is T1, OsSMF1 (Oryza sativa, UniProt Q6ZLB0 1-436).
T1 sequence: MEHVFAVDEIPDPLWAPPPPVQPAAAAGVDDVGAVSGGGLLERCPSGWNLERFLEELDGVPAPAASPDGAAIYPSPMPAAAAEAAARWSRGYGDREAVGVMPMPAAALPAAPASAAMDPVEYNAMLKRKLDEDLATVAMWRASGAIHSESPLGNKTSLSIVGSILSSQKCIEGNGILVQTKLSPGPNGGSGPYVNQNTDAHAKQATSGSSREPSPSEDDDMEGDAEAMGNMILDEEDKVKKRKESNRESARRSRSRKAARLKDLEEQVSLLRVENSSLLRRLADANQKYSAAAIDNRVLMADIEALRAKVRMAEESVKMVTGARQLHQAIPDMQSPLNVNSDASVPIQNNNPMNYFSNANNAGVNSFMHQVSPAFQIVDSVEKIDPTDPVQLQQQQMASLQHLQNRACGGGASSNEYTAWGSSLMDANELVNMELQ
The assay can be described thus: protein-binding microarray (RPBM); PBS, 2% BSA, 51.3 ng/ul salmon testes DNA, 50 uM zinc acetate, 200 nM TF, 25 C, 1 h; high values mean tight binding. To be noted: protein: recombinant; tags: N-terminal polyhistidine and DsRed monomer fusion (pET32a); chain copies: 2; label: CyDye5-dUTP incorporated in the synthesized complementary strand; 3' TTTTT single-stranded linker to array surface; dsDNA, one strand shown. Summed up: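 Per-feature fluorescence intensity (arbitrary units), read on an Axon 4000B scanner, is the binding signal. Transcription factors carrying an N-terminal polyhistidine tag and DsRed fusion were expressed in E. coli BL21-CodonPlus and purified on Ni–NTA. A custom Agilent array, made double-stranded by primer extension with Cy5-dUTP and blocked with 2% BSA, was incubated with 200 nM protein in PBS, 2% BSA, salmon testes DNA and 50 µM zinc acetate at 25 °C for 1 h and then washed.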
On to “TCCCTGACTCCGCGACTGCTCCTCCTTCCTCCTCTCTCCTCGGAGTCACCTAGTGCAG”, for which the binding signal is 3270 fluorescence intensity (a.u.).

In the case of “TGGGTCCCTCCATGCTGAGTCAGCTTGTCAATCGGGTCAACGGAGTCACCTAGTGCAG”, the binding signal is 21900 fluorescence intensity (a.u.).

For “GGAATCCAGAATGAGTTTGGAGGGAGGCTCGTCTTTACGACGGAGTCACCTAGTGCAG”, the binding signal was 23700 fluorescence intensity (a.u.).

“TCTGCAATCGCCTCATTTGTTGCCTAGCTAATTCGCGTCACGGAGTCACCTAGTGCAG”: the binding signal was 4140 fluorescence intensity (a.u.).

As to “CGAGGCCACGCGCAGCCCCTCGCCTCGCCACGACACGGATCGGAGTCACCTAGTGCAG”, the binding signal is 5180 fluorescence intensity (a.u.).

Consider “ATTACATACTGGATGTGGATGATTTGCTTCATTAGAAATACGGAGTCACCTAGTGCAG”, for which the binding signal is 3700 fluorescence intensity (a.u.).

In the case of “GATTAGTGTGGTGGCATTCTTTTCTTCCATGATGCTACAGCGGAGTCACCTAGTGCAG”, the binding signal was 3410 fluorescence intensity (a.u.).

With “ACTAAATTGACTTATTAGGTGTTGTCACAGTTTACTTGACCGGAGTCACCTAGTGCAG”, the binding signal is 4870 fluorescence intensity (a.u.).

For “ATACACTCATTACGTTTGCTGTTGACAGGCTATCAAGATGCGGAGTCACCTAGTGCAG”, the binding signal is 5100 fluorescence intensity (a.u.).

For “CTCGACATTGCTGGCAATGCCTGGGAGATTGCTTGCCATGCGGAGTCACCTAGTGCAG”, the binding signal is 3180 fluorescence intensity (a.u.).

For the sequence “AGTCAAGTGAATTGCTTACATGGCATGATTAACAATTGACCGGAGTCACCTAGTGCAG”, the binding signal is 3600 fluorescence intensity (a.u.).

For the sequence “TTCCTTCGCTGTGACGTCGTTCGTTCTGGATTGGTTACACCGGAGTCACCTAGTGCAG”, the binding signal was 5870 fluorescence intensity (a.u.).

With “AAGTGCAGACACGACACAGCGTGACGCCGCGGGACGTCTCCGGAGTCACCTAGTGCAG”, the binding signal is 3680 fluorescence intensity (a.u.).

In the case of “CAGGCCACACACGTCGATGACTCCACCAGCCGTTATTCTTCGGAGTCACCTAGTGCAG”, the binding signal is 6270 fluorescence intensity (a.u.).

Take “GGCGCTCCATCACCACTTGGGCAAACGAAAACGGTGGTCGCGGAGTCACCTAGTGCAG”: the binding signal was 3880 fluorescence intensity (a.u.).

“CCTCATTTTGCTACAAGTGTGTCATGCCATACAAAGTAAGCGGAGTCACCTAGTGCAG”: the binding signal was 5750 fluorescence intensity (a.u.).

For “GTGCAAGCACGTGTGACAACAAACACATCCATGGCGATATCGGAGTCACCTAGTGCAG”, the binding signal is 3170 fluorescence intensity (a.u.).

As for “GCATATTGACAAGGAGGAGGAAAAGAAAAGAGATAGAGAGCGGAGTCACCTAGTGCAG”, the binding signal was 7890 fluorescence intensity (a.u.).

On to “ACTCGCGCACTCGCGCTCGCTCGCACGAACGCACGCACGCCGGAGTCACCTAGTGCAG”, for which the binding signal is 3670 fluorescence intensity (a.u.).

“GTTGGAGGACGATTTTGTAACTCGATGACTAGTTGAGGGACGGAGTCACCTAGTGCAG”: the binding signal is 3460 fluorescence intensity (a.u.).

Regarding “GTACACCGGACGGAAGATGAGTCAGCCATTCTATTATCAGCGGAGTCACCTAGTGCAG”, the binding signal was 5860 fluorescence intensity (a.u.).

As for “GTGTTGGCCCGATTGAGATGTGTCATCCGTGATGGCCGGACGGAGTCACCTAGTGCAG”, the binding signal was 3400 fluorescence intensity (a.u.).

On to “CGCTTGTACTGATTTGGTTTTGGTTGCTGGGTTGGATGGTCGGAGTCACCTAGTGCAG”, for which the binding signal is 3440 fluorescence intensity (a.u.).
